According to the supplement of paper PMC4604168 (melanoma cell lines):
This is one part of the list. Many values rest on one well or one pass, so single values are uncertain.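 The apoptosis fraction was the count of cleaved-PARP antibody-stained nuclei relative to all DNA-stained nuclei, imaged in 1,536-well plates. Screening doses were set so most cells survived, and baseline and induced cleaved-PARP levels vary greatly across cell lines.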

These molecules were tested on UACC257 (assay: cleaved PARP positive nuclei fraction relative to DMSO control; melanoma cells; higher = more apoptosis). Conditions: library dose: low library concentration; 72 h.

SMILES	cleaved PARP positive nuclei fraction [%]
O=C(O)[C@@H]1[O][Sb](=[O])([O][Sb]2(=[O])[O][C@H]([C@H](O)CO)[C@H](O)[C@H](C(=O)O)[O]2)[O][C@H]([C@H](O)CO)[C@@H]1O (stereo not given in full) [stibogluconate] + CN(NC(=O)CC(=O)NN(C)C(=S)c1ccccc1)C(=S)c1ccccc1 [STA4783] (first compound 2 µM, partner dose 0.006 µM)	44.2
CCCS(=O)(=O)Nc1ccc(F)c(C(=O)c2c[nH]c3ncc(Cl)cc23)c1F + COc1ccc(COc2ccc(Cc3cnc(N)nc3N)cc2OC)cc1 [GW2580] (first compound 0.08 µM, partner dose 1 µM)	48.8
Nc1ncn([C@H]2C[C@H](O)[C@@H](CO)O2)c(=O)n1 [decitabine] + CCc1ccc(CCOc2ccc(CC3SC(=O)NC3=O)cc2)nc1 [pioglitazone] (first compound 0.1 µM, partner dose 2 µM)	78.7
CN1CCN(c2ccc3nc(-c4c(N)c5c(F)cccc5[nH]c4=O)[nH]c3c2)CC1 [Dovitinib] + CN(NC(=O)CC(=O)NN(C)C(=S)c1ccccc1)C(=S)c1ccccc1 [STA4783] (first compound 0.1 µM, partner dose 0.006 µM)	149
Nc1ccn([C@@H]2O[C@H](CO)[C@@H](O)C2(F)F)c(=O)n1 [gemcitabine] + O=c1cc(-c2cccc3c2Sc2ccccc2S3)oc(N2CCOCC2)c1 [KU55933] (first compound 0.0004 µM, partner dose 1 µM)	101
CCCS(=O)(=O)Nc1ccc(F)c(C(=O)c2c[nH]c3ncc(Cl)cc23)c1F + COc1cc(Nc2ncc(F)c(Nc3ccc4c(n3)NC(=O)C(C)(C)O4)n2)cc(OC)c1OC [Tamatinib] (first compound 0.08 µM, partner dose 0.4 µM)	144
Cn1c(=O)n(-c2ccc(C(C)(C)C#N)cc2)c2c3cc(-c4cnc5ccccc5c4)ccc3ncc21 + Oc1cc(-c2nc(-c3ccccc3)[nH]c2-c2ccncc2)ccc1Cl [L779450] (first compound 0.004 µM, partner dose 0.2 µM)	124
CN1CCN(c2ccc3nc(-c4c(N)c5c(F)cccc5[nH]c4=O)[nH]c3c2)CC1 [Dovitinib] + COc1ccc(COc2ccc(Cc3cnc(N)nc3N)cc2OC)cc1 [GW2580] (first compound 0.1 µM, partner dose 1 µM)	140
C=C(c1ccc(C(=O)O)cc1)c1cc2c(cc1C)C(C)(C)CCC2(C)C [Bexarotene] + CCc1ccc(CCOc2ccc(CC3SC(=O)NC3=O)cc2)nc1 [pioglitazone] (first compound 2 µM, partner dose 2 µM)	83.1
Cc1cc(Nc2cc(N3CCN(C)CC3)nc(/C=C/c3ccccc3)n2)n[nH]1 + CC(C)CCN1c2nc(Nc3cc(F)c(O)c(F)c3)ncc2N(C)C(=O)C1C [BID1870] (first compound 0.04 µM, partner dose 0.2 µM)	264
CN1CCN(c2ccc3nc(-c4c(N)c5c(F)cccc5[nH]c4=O)[nH]c3c2)CC1 [Dovitinib] + CN(C)S(=O)(=O)c1ccc2c(c1)/C(=C/c1cc3c([nH]1)CCCC3)C(=O)N2 [SU6656] (first compound 0.1 µM, partner dose 0.4 µM)	108
CC(C)C[C@H](NC(=O)[C@H](Cc1ccccc1)NC(=O)c1cnccn1)B(O)O [Bortezomib] + COc1cc2ncnc(Nc3ccc(Oc4ccccc4)cc3)c2cc1OC [SrcI1] (first compound 0.001 µM, partner dose 2 µM)	162
CC(C)C[C@H](NC(=O)[C@H](Cc1ccccc1)NC(=O)c1cnccn1)B(O)O [Bortezomib] + C[C@@H]1CCN(C(=O)CC#N)C[C@@H]1N(C)c1ncnc2[nH]ccc12 [CP690550] (first compound 0.001 µM, partner dose 1 µM)	35.5
CNC(=O)c1cc(Oc2ccc(NC(=O)Nc3ccc(Cl)c(C(F)(F)F)c3)cc2)ccn1 [sorafenib] + c1cc(-c2cnn3cc(-c4ccc(OCCN5CCCCC5)cc4)cnc23)ccn1 [Dorsomorphin] (first compound 0.4 µM, partner dose 0.4 µM)	110
O=C(O)c1ccc2c(c1)nc(Nc1cccc(Cl)c1)c1ccncc12 + O=C(Nc1cccc(Cl)c1)Nc1ncc(CCNc2ncnc3ccsc23)s1 [SNS314] (first compound 0.4 µM, partner dose 0.0008 µM)	93.8
CCCS(=O)(=O)Nc1ccc(F)c(C(=O)c2c[nH]c3ncc(Cl)cc23)c1F + CCc1ccc(CCOc2ccc(CC3SC(=O)NC3=O)cc2)nc1 [pioglitazone] (first compound 0.08 µM, partner dose 2 µM)	149
O=C(O)c1ccc2c(c1)nc(Nc1cccc(Cl)c1)c1ccncc12 + CC(C)(C)c1cnc(CSc2cnc(NC(=O)C3CCNCC3)s2)o1 [SNS-032] (first compound 0.4 µM, partner dose 0.01 µM)	169
CN1CCN(c2ccc3nc(-c4c(N)c5c(F)cccc5[nH]c4=O)[nH]c3c2)CC1 [Dovitinib] + NC(=O)Nc1cc(-c2cccc(F)c2)sc1C(=O)N[C@H]1CCCNC1 [AZD7762] (first compound 0.1 µM, partner dose 0.02 µM)	70.9
O=C(O)[C@@H]1[O][Sb](=[O])([O][Sb]2(=[O])[O][C@H]([C@H](O)CO)[C@H](O)[C@H](C(=O)O)[O]2)[O][C@H]([C@H](O)CO)[C@@H]1O (stereo not given in full) [stibogluconate] + OCCn1cc(-c2cnc3nnn(Cc4ccc5ncccc5c4)c3n2)cn1 [PF04217903] (first compound 2 µM, partner dose 1 µM)	56.8
CS(=O)(=O)CCNCc1ccc(-c2ccc3ncnc(Nc4ccc(OCc5cccc(F)c5)c(Cl)c4)c3c2)o1 [lapatinib] + COc1ccc(COc2ccc(Cc3cnc(N)nc3N)cc2OC)cc1 [GW2580] (first compound 0.8 µM, partner dose 1 µM)	65.8

As entered above:
In cleaved PARP positive nuclei fraction [%], O=C(O)[C@@H]1[O][Sb](=[O])([O][Sb]2(=[O])[O][C@H]([C@H](O)CO)[C@H](O)[C@H](C(=O)O)[O]2)[O][C@H]([C@H](O)CO)[C@@H]1O (stereo not given in full) [stibogluconate] + OCCn1cc(-c2cnc3nnn(Cc4ccc5ncccc5c4)c3n2)cn1 [PF04217903] (first compound 2 µM, partner dose 1 µM) reads 56.8
In cleaved PARP positive nuclei fraction [%], CCCS(=O)(=O)Nc1ccc(F)c(C(=O)c2c[nH]c3ncc(Cl)cc23)c1F + COc1ccc(COc2ccc(Cc3cnc(N)nc3N)cc2OC)cc1 [GW2580] (first compound 0.08 µM, partner dose 1 µM) reads 48.8
